The target in the test is T1, FLAG-tagged SERRATE (FLAG-SE) (Arabidopsis thaliana) (UniProt Q9ZVD0).
T1 sequence: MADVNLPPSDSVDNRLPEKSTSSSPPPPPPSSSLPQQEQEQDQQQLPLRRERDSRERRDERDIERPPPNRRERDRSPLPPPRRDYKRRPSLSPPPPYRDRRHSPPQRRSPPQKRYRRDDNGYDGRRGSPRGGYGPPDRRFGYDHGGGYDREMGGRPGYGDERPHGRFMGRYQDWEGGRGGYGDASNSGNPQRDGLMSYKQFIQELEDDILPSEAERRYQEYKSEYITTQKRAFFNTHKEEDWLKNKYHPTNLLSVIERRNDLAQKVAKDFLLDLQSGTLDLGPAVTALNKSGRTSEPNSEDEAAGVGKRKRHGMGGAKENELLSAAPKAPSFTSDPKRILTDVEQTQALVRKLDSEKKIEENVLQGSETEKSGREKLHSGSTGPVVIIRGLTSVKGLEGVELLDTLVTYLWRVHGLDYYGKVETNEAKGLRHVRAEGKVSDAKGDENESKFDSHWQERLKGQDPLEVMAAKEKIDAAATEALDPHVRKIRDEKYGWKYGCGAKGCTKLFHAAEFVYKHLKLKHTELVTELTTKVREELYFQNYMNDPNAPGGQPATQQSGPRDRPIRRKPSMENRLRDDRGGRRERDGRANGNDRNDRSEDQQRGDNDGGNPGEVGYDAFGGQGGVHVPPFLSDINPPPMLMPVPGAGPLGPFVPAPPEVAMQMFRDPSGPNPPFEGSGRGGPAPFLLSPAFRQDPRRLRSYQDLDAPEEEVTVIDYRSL
Nature of the test: affinity purification with mass spectrometry; FLAG-SE as bait from flower extracts (50 mM Tris HCl pH 8.0, 50 mM NaCl, 1% Triton X-100), anti-FLAG magnetic microbeads, LC-MS/MS; mock IPs in Col-0.

Protein sequences, listed by entry. Tags and fused reporters are not part of them. Lines headed by an entry give the natural chain unless they say otherwise; changes in a name come on top.
UniProt Q9SP32: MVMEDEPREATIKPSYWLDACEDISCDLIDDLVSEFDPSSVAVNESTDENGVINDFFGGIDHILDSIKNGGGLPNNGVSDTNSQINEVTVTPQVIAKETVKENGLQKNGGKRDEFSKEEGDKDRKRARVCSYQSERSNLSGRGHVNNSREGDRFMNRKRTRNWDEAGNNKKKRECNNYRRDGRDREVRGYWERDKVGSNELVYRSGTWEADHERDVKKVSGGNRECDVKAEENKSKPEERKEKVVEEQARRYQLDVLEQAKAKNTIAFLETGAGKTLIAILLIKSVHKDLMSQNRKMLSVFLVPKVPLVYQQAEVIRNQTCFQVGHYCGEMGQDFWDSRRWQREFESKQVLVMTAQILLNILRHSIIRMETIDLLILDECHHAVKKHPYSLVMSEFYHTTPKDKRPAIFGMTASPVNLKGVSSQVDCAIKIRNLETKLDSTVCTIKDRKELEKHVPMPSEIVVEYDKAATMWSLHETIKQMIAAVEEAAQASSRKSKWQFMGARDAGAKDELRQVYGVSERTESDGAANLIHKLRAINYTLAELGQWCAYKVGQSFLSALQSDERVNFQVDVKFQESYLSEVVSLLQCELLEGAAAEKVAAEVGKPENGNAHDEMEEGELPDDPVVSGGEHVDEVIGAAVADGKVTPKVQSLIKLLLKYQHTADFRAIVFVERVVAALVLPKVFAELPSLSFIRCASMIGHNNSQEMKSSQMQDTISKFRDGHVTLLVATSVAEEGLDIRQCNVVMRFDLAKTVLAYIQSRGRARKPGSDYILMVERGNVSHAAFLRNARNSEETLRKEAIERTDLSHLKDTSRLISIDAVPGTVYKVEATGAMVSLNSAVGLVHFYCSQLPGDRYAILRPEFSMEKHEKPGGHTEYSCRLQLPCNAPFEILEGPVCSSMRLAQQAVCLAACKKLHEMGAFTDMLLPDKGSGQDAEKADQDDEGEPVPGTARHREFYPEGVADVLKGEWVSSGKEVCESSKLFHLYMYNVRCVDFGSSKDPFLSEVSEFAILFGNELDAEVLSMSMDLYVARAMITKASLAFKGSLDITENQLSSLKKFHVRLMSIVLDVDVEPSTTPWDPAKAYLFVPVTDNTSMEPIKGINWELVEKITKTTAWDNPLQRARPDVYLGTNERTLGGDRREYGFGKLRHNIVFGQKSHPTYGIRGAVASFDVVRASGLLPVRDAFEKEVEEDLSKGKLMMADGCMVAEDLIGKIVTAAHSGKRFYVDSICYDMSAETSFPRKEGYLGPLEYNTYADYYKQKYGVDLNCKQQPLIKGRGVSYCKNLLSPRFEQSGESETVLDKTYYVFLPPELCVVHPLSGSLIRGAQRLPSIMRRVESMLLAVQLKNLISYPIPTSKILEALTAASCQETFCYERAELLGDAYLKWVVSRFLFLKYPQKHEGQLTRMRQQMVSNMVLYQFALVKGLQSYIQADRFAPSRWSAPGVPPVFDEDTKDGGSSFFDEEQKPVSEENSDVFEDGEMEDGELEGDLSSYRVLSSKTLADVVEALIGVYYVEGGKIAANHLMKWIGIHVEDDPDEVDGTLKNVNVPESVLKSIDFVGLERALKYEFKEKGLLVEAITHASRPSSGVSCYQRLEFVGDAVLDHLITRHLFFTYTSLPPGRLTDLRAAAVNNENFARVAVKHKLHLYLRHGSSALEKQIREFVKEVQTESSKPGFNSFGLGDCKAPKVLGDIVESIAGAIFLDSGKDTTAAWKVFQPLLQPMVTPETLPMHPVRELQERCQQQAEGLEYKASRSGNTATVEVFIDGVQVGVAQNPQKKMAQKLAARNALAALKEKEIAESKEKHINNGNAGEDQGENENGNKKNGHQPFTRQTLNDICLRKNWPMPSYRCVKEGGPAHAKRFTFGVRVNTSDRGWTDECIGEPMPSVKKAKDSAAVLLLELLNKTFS
UniProt Q6EVK6: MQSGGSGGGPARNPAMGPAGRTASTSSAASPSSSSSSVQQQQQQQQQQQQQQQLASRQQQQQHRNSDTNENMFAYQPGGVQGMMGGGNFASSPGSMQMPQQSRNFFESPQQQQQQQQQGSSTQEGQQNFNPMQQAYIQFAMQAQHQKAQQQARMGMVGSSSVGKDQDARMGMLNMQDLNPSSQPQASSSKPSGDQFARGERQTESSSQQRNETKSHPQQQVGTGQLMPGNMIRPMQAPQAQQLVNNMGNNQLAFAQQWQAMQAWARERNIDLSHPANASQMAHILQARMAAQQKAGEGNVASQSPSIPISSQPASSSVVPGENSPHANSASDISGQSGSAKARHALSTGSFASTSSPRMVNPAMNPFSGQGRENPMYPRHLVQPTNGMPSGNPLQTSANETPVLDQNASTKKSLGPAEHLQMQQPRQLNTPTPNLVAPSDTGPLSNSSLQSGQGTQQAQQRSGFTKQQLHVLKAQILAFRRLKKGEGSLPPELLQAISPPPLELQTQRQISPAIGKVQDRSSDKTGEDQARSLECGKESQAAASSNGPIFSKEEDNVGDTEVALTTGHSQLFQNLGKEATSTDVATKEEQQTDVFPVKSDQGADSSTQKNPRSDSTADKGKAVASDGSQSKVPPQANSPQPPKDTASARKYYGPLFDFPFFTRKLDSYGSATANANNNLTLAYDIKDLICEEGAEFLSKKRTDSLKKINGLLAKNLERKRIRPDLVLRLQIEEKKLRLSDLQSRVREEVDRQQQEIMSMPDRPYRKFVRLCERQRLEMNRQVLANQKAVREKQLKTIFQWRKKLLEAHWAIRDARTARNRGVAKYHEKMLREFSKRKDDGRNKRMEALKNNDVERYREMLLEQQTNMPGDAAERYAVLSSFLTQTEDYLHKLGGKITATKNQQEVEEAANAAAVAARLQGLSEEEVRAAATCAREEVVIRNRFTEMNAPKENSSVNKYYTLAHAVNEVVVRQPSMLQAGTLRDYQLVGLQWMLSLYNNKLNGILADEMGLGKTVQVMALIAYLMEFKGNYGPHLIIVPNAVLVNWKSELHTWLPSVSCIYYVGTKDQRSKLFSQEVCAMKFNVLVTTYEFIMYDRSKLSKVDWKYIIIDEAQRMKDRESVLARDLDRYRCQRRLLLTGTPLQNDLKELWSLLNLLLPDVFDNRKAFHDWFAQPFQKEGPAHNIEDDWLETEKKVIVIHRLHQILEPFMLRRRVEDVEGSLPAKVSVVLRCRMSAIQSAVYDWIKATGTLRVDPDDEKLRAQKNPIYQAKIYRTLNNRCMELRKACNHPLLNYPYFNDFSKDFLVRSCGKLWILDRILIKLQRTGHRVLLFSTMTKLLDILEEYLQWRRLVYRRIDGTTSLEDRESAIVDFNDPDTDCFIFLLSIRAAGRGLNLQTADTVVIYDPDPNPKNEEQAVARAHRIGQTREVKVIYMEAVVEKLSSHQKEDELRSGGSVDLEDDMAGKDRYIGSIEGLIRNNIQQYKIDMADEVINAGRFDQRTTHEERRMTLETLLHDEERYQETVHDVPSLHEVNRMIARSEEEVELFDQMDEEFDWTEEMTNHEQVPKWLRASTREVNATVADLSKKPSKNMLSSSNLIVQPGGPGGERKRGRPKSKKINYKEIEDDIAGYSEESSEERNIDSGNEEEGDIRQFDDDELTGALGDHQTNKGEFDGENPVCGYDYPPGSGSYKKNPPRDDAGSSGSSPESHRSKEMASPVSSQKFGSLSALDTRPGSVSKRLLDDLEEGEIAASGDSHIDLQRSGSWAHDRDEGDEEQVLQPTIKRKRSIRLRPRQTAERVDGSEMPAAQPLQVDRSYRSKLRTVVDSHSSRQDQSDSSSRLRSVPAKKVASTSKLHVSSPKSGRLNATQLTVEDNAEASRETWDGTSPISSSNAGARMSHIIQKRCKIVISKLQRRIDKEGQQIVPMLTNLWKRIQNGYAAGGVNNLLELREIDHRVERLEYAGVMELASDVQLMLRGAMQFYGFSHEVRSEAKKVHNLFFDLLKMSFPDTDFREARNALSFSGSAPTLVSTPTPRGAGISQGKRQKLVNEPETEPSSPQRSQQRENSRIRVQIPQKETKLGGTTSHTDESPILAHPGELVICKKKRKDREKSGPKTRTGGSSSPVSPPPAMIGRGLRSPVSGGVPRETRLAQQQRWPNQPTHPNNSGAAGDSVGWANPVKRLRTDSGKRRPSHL
UniProt F4IAT2: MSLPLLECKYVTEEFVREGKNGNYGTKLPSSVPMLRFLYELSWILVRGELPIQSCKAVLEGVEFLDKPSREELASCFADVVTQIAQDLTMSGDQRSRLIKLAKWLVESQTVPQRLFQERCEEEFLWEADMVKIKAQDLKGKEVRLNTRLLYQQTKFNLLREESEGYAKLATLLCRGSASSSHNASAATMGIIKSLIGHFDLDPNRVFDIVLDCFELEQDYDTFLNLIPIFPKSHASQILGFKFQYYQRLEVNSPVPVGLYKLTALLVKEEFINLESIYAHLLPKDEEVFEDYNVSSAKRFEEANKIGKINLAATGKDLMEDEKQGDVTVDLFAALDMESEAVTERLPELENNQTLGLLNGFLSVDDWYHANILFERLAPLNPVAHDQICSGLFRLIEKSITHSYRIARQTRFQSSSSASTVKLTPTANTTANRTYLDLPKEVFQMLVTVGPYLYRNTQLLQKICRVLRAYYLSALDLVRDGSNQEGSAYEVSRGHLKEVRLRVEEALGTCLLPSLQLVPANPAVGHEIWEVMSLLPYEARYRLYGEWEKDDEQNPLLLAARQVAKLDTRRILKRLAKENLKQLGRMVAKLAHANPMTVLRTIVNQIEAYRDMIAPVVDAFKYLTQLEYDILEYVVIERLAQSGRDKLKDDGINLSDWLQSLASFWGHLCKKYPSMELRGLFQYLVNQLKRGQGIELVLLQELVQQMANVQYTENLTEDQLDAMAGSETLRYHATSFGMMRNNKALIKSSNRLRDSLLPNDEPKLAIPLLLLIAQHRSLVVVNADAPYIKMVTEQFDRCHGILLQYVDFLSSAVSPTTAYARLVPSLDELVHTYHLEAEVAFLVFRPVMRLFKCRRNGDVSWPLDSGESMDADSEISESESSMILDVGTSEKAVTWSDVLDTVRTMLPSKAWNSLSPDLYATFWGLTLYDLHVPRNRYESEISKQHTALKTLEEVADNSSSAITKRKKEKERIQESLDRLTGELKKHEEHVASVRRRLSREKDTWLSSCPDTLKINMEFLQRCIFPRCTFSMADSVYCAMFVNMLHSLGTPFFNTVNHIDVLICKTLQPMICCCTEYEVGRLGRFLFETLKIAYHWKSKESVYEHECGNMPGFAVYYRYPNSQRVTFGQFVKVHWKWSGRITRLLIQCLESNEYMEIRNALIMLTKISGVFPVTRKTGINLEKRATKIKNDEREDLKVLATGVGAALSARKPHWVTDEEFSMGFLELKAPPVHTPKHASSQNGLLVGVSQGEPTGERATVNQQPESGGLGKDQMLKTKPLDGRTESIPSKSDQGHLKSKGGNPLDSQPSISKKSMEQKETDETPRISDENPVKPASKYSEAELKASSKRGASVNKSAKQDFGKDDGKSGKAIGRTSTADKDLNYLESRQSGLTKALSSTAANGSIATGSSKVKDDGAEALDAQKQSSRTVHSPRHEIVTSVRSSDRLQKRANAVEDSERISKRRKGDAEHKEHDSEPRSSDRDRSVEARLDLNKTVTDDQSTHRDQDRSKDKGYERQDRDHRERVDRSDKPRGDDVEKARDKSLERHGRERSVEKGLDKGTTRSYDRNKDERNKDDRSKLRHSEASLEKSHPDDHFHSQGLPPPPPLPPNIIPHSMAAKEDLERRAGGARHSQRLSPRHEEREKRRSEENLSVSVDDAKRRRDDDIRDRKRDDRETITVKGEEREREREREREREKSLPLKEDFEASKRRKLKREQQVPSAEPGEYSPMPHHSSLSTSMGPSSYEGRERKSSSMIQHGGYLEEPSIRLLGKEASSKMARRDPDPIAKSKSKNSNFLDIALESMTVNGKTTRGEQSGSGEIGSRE
UniProt F4JLJ9: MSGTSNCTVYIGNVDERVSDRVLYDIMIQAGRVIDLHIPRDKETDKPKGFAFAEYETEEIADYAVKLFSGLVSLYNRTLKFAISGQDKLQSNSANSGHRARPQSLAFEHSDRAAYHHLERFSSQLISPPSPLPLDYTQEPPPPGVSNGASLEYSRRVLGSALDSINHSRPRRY

These are yes or no findings as the source states them, for the method shown. In cells and extracts the contact can be indirect. Here binding means that the protein was enriched with, or labelled near, the bait; the list need not be complete. Sequences can lack the tags named with a protein.

On to “Dicer like 1 (DCL1) (from UniProt Q9SP32 1-1909)”, for which the binding result is “binds”.
For THO7, the binding entry was “binds”.
Turning to BRM (from UniProt Q6EVK6 1-2193), the binding entry is on record as “binds”.
Consider THO2 (from UniProt F4IAT2 1-1823), for which the binding result was “binds”.
Regarding RBM7 (endogenous) (from UniProt F4JLJ9), the binding result is recorded as “binds”.
With ZCCHC8B (endogenous) the entry was “binds”.
For ZCCHC8A (endogenous), the binding entry is listed as “binds”.
Consider HOS5, for which the binding entry is listed as “binds”.

B1: THO4B (protein, UniProt Q8L719 1-292)
chain: MSGGLDMSLDDIIKSNRKPTGSRGRGGIGGGNNTGGRGGSGSNSGPSRRFANRVGARTAPYSRPIQQQQAHDAMWQNDVFATDASVAAAFGHHQTAVVGGGSSIETGTKLYISNLDYGVSNEDIKELFSEVGDLKRYGIHYDRSGRSKGTAEVVFSRRGDALAAVKRYNNVQLDGKLMKIEIVGTNLSAPALPILATAQIPFPTNGILGNFNENFNGNFNGNFNGNFRGRGRGGFMGRPRGGGFGGGNFRGGRGARGRGGRGSGGRGRDENVSAEDLDAELDKYHKEAMETS
Take B1: the binding result was “binds”.

B2: CDC5 (protein, UniProt P92948 1-844)
chain: MRIMIKGGVWKNTEDEILKAAVMKYGKNQWARISSLLVRKSAKQCKARWYEWLDPSIKKTEWTREEDEKLLHLAKLLPTQWRTIAPIVGRTPSQCLERYEKLLDAACTKDENYDAADDPRKLRPGEIDPNPEAKPARPDPVDMDEDEKEMLSEARARLANTRGKKAKRKAREKQLEEARRLASLQKRRELKAAGIDGRHRKRKRKGIDYNAEIPFEKRAPAGFYDTADEDRPADQVKFPTTIEELEGKRRADVEAHLRKQDVARNKIAQRQDAPAAILQANKLNDPEVVRKRSKLMLPPPQISDHELEEIAKMGYASDLLAENEELTEGSAATRALLANYSQTPRQGMTPMRTPQRTPAGKGDAIMMEAENLARLRDSQTPLLGGENPELHPSDFTGVTPRKKEIQTPNPMLTPSMTPGGAGLTPRIGLTPSRDGSSFSMTPKGTPFRDELHINEDMDMHESAKLERQRREEARRSLRSGLTGLPQPKNEYQIVAQPPPEESEEPEEKIEEDMSDRIAREKAEEEARQQALLKKRSKVLQRDLPRPPAASLAVIRNSLLSADGDKSSVVPPTPIEVADKMVREELLQLLEHDNAKYPLDDKAEKKKGAKNRTNRSASQVLAIDDFDENELQEADKMIKEEGKFLCVSMGHENKTLDDFVEAHNTCVNDLMYFPTRSAYELSSVAGNADKVAAFQEEMENVRKKMEEDEKKAEHMKAKYKTYTKGHERRAETVWTQIEATLKQAEIGGTEVECFKALKRQEEMAASFRKKNLQEEVIKQKETESKLQTRYGNMLAMVEKAEEIMVGFRAQALKKQEDVEDSHKLKEAKLATGEEEDIAIAMEASA
Regarding B2, the binding result is “binds”.

B3: CBP20 (protein, UniProt Q9XFD1 1-257)
chain: MASLFKEQAKLSAYRDRRFSGTQEEFDEALRASTTVYIGNVSFYTTEEQLYELFSRAGEIKKIIMGLDKNTKTPCGFCFVLFYSREDTEDAVKYISGTILDDRPIRVDFDWGFQEGRQWGRGRSGGQVRDEYRTDYDPARGGYGKLVQKELEAQRQLVDYGTGSLGAYPQAAPTNYGNGRRGGGNYGQGGQNRHGRGDYHRKRQRDDDRYGRDNSRRNTDHESRRDTDSDMRPEKNPRFRESGDSDDDGEDDRKRRS
For the molecule B3, the binding entry is listed as “binds”.

B4: CPL1 (protein, UniProt Q5YDB6 1-967)
chain: MYSNNRVEVFHGDGRLGELEIYPSRELNQQQDDVMKQRKKKQREVMELAKMGIRISHFSQSGERCPPLAILTTISSCGLCFKLEASPSPAQESLSLFYSSCLRDNKTAVMLLGGEELHLVAMYSENIKNDRPCFWAFSVAPGIYDSCLVMLNLRCLGIVFDLDETLVVANTMRSFEDKIDGFQRRINNEMDPQRLAVIVAEMKRYQDDKNLLKQYIESDQVVENGEVIKVQSEIVPALSDNHQPLVRPLIRLQEKNIILTRINPMIRDTSVLVRMRPSWEELRSYLTAKGRKRFEVYVCTMAERDYALEMWRLLDPEGNLINTNDLLARIVCVKSGFKKSLFNVFLDGTCHPKMALVIDDRLKVWDEKDQPRVHVVPAFAPYYSPQAEAAATPVLCVARNVACGVRGGFFRDFDDSLLPRIAEISYENDAEDIPSPPDVSHYLVSEDDTSGLNGNKDPLSFDGMADTEVERRLKEAISASSAVLPAANIDPRIAAPVQFPMASASSVSVPVPVQVVQQAIQPSAMAFPSIPFQQPQQPTSIAKHLVPSEPSLQSSPAREEGEVPESELDPDTRRRLLILQHGQDTRDPAPSEPSFPQRPPVQAPPSHVQSRNGWFPVEEEMDPAQIRRAVSKEYPLDSEMIHMEKHRPRHPSFFSKIDNSTQSDRMLHENRRPPKESLRRDEQLRSNNNLPDSHPFYGEDASWNQSSSRNSDLDFLPERSVSATETSADVLHGIAIKCGAKVEYKPSLVSSTDLRFSVEAWLSNQKIGEGIGKSRREALHKAAEASIQNLADGYMRANGDPGPSHRDATPFTNENISMGNANALNNQPFARDETALPVSSRPTDPRLEGSMRHTGSITALRELCASEGLEMAFQSQRQLPSDMVHRDELHAQVEIDGRVVGEGVGSTWDEARMQAAERALSSVRSMLGQPLHKRQGSPRSFGGMSNKRLKPDFQRSLQRMPSSGRYS
For B4, the binding result was “binds”.

B5: THO5A (protein, UniProt F4HRC1 1-452)
chain: MQSEMAIDTVATAEKSPLELLQQTKASVEAIIAKMLSIKQQGTPKSENRELLTQMFLNFINLRQANRSILIEEEKVRTETEIAKSPVDFTTLELHNLMYEKSHYLKANKASRDFKSRYPNIDLISEQDFFSDAPEAIKSQTLSNDSSHDLMLKRLNFELHQRKELCKLRVRLEQQKKSLLESNAERNKFLSSLPVHLKSLKKASLPVQSQLSLQNQKKLKYHNLAELLPPPLYVIYSQFMALKEAFEENIDVEVSGSLKDAQTYARQQAEQNSESLRLEVGVDEERQRKRLKKVGSDEGGVYQVHPLKVVLHVYDDEITDPKSHELVMLKFEYLLKLNVVCVGIEESEDGLEKNILCNLFPDDSGLEPPHQSAKLILGNDHVFDKSRTSRPYKWAQHLAGIETLPEMSPFFTDKDIQYSDTAKGYASASDHRNVQTVLQRIRSQKKTKLTLV
As for B5, the binding entry is listed as “binds”.

B6: CBP80 (protein, UniProt Q9SIU2 1-848)
chain: MSNWKTLLLRIGEKGPEYGTSSDYKDHIETCFGVIRREIERSGDQVLPFLLQCAEQLPHKIPLYGTLIGLLNLENEDFVQKLVESVHANFQVALDSGNCNSIRILLRFMTSLLCSKVIQPASLIVVFETLLSSAATTVDEEKGNPSWQPQADFYVICILSSLPWGGSELAEQVPDEIERVLVGIQAYLSIRKNSSTSGLNFFHNGEFESSLAEKDFVEDLLDRIQSLASNGWKLESVPRPHLSFEAQLVAGKFHELRPIKCMEQPSPPSDHSRAYSGKQKHDALTRYPQRIRRLNIFPANKMEDVQPIDRFVVEEYLLDVLFYLNGCRKECASYMANLPVTFRYEYLMAETLFSQILLLPQPPFKTLYYTLVIMDLCKALPGAFPAVVAGAVRALFEKISDLDMESRTRLILWFSHHLSNFQFIWPWEEWAFVLDLPKWAPKRVFVQEILQREVRLSYWDKIKQSIENATALEELLPPKAGPNFMYSLEEGKEKTEEQQLSAELSRKVKEKQTARDMIVWIEETIYPVHGFEVTLTIVVQTLLDIGSKSFTHLVTVLERYGQVFSKLCPDNDKQVMLLSQVSTYWKNNVQMTAVAIDRMMGYRLVSNQAIVRWVFSPENVDQFHVSDQPWEILGNALNKTYNRISDLRKDISNITKNVLVAEKASANARVELEAAESKLSLVEGEPVLGENPAKMKRLKSTVEKTGEAELSLRESLEAKEALLNRALSETEVLLLLLFQSFLGVLKERLPDPTKVRSVQDLKSIGAEDDKPSAMDVDSENGNPKKSCEVGEREQWCLSTLGYLTAFTRQYASEIWPHMEKLESEVFSGEDVHPLFLQAISSALQFPLH
On to B6, for which the binding entry was “binds”.

B7: THO1 (protein, UniProt Q93VM9 1-599)
chain: MDAFRDAILQRAPIETFALKTVQHFIQPQKQTKLAQDENQMLENMLRTLLQELVAAAAQSGEQIMQYGQLIDDDDDDDDIHGQIPHLLDVVLYLCEKEHVEGGMIFQLLEDLTEMSTMKNCKDVFGYIESKQDILGKQELFARGKLVMLRTCNQLLRRLSKANDVVFCGRILMFLAHFFPLSERSAVNIKGVFNTSNETKYEKDPPKGISVDFNFYKTFWSLQEYFCNPASLTSASTKWQKFSSSLAVVLNTFDAQPLSEEEGEANSLEEEAATFNIKYLTSSKLMGLELKDSSFRRHILLQCLIMFDYLRAPGKNDKDLPSETMKEELKSCEDRVKKLLEITPPKGKEFLRAVEHILEREKNWVWWKRDGCPPFEKQPIDKKSPNAGQKKRRQRWRLGNKELSQLWRWADQNPNALTDSQRVRTPDIADYWKPLAEDMDPSAGIEDEYHHKNNRVYCWKGLRFTARQDLEGFSRFTEMGIEGVVPVELLPPEVRSKYQAKPNEKAKRAKKEETKGGSHETEGNQIGVSNSEAEAEGGRGDAETMESDAIADTPTPEEQQRLGGSDTENGQEAGQIEDGETEEAGLMDTDLDHPPMPVS
For B7, the binding result is “binds”.

B8: THO6 (protein, UniProt Q8L4M1 1-367)
chain: MYGDATNWNEDEYRESILKEREIETRTVFRTAWAPPARISNPDAFVVASSDGTLAFHSLNSLVSQSASFGYSKGQDVMVAEPERVVRAHEGPAYDVKFYGEDEDALLLSCGDDGRVRGWKWREFAESDVSLHLKENHLKPLLELINPQHKGPWGALSPMPEINAMSVDPQSGSVFTAAGDSCAYCWDVESGKIKMTFKGHSDYLHTVVSRSSASQILTGSEDGTARIWDCKTGKCVKVIGSQDKKSRLRVSSMALDGSESWLVCGQGKNLALWNLPASECVQTIPIPAHVQDVMFDEKQILTVGAEPLLRRFDLNGALLSQIHCAPCSVFSISLHPAGVVAVGGYGGIVDVISQFGSHLCTFRSSSL
Take B8: the binding entry is “binds”.

The values above are taken from paper PMC7337926.
